## Results from one PubChem assay

The results are deposited in PubChem (AID1159506; NCATS, 2015).

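Luminescence from an EWS-FLI1 target-promoter (NR0B1) reporter, set against a CMV-promoter reporter, two days after silencing single genes in TC32 Ewing sarcoma cells.
Each siRNA was applied at 20 nM.
A z-score of the log NR0B1-over-CMV signal, less the median of siRNAs with the same seed; more negative means a stronger specific loss of the NR0B1 reporter.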

This is part of the screen; most of the strongest results are not listed here.
Sequences are the guide (antisense) strand, without overhang.

| # | Sequence | target gene | seed-corrected z-score |
|---|---|---|---|
| 1 | `UCAAGCACCAUCUUGUCGC` | HEATR4 | 0.1828 |
| 2 | `AUAGGUAUCAUGGAAGGUG` | KCNJ5 | 0.6259 |
| 3 | `UCUAGAGUCAAAGCUAGGG` | RPSAP22 | -0.5285 |
| 4 | `UUCAGCAUAAUGAACUCCG` | ELAC2 | -0.5391 |
| 5 | `UUUUCGUAAUUGAUCAUCG` | PPP2R3C | 0.4239 |
| 6 | `ACUGGAACACGAGCUGUCG` | KRBA1 | -0.2254 |
| 7 | `UGGGUAGUAAGGAUAGCUG` | NKX3-1 | -0.04782 |
| 8 | `AGGCUUUUCACGAUGCUUC` | COMMD7 | 1.548 |
| 9 | `UUAUCCAGUAAUGAUACCG` | LNPEP | -0.2275 |
| 10 | `UCUCCAUCAUCUGAAGUUG` | FAM196A | 1.074 |
| 11 | `ACAUCAACCAGGUAAUUGC` | ABAT | -0.215 |
| 12 | `UAAAUGUCUGCGGAUCUCG` | GDAP1L1 | -0.3172 |
| 13 | `UCUCUUACAAAAUCCCAUG` | ERAP2 | 0.4823 |
| 14 | `UUUGUAGUCGCUCCACUCC` | CHRNA2 | -0.08344 |
| 15 | `UCUUGGGUAAAGAUCAAUC` | AMZ2 | -0.3329 |
| 16 | `AGCUCAAUAAAUAACAUCU` | PKIG | 0.3915 |
| 17 | `UCAUGGAUGGUGAAAGGCC` | MICAL2 | -0.1286 |
| 18 | `AACAUUACUUCCGUAUUGC` | DDX5 | -0.5069 |
| 19 | `UAUACAUCCCUUCUUAUAG` | CFAP47 | -0.1688 |
| 20 | `UUCAUUGUUACUGCGCAGG` | SLC9A4 | 0.2269 |
| 21 | `UUCACGAUGAAAUAGUUGG` | ADRA1D | -0.0008065 |
| 22 | `AAUCCGACAACUGUAAGGG` | ZNF438 | 0.102 |
| 23 | `ACUCCGAUCAUUAAUGUUG` | WIPF2 | 0.05612 |
| 24 | `UUUCUGGUUUGAAUACUUC` | SMG5 | 0.2876 |
| 25 | `AUUUGGUGAAUAGUUGUUG` | DNAJB7 | -0.4031 |
| 26 | `UGUAUUUCAUAUAAAGUGG` | RNF180 | -0.5634 |
| 27 | `UUCUUUAGCACCAGAAACU` | BANF1 | -0.2343 |
| 28 | `AGAAUGAUUAGCAUAGGCC` | FANCA | -0.1228 |
| 29 | `AUAGGGUUGAUCAUGGAGU` | GPR3 | -0.1897 |
| 30 | `AUUCCAAUCAUAGAUGUUG` | RFXANK | -0.9431 |
| 31 | `UAGGAUUUGGUAAAGUGUC` | OSR2 | 0.4709 |
| 32 | `AUCUUCUUAACCAUCCGGC` | STK40 | -1.235 |
| 33 | `UUGCAGAGCACAAUCCUCC` | FHOD1 | -0.9637 |
| 34 | `UCUUGGAAUUCGGUGAAUG` | ALG14 | -0.2026 |
| 35 | `UUCCAUUUCGCAGUUGACC` | WIPF3 | -0.6283 |
| 36 | `UCAUUAGACAGCGUGACUG` | PDP1 | -0.4604 |
| 37 | `UGGUCUUCCACGAAGCAGC` | TMPRSS3 | -0.695 |
| 38 | `UCACUGGGAAUAACCAUGU` | AKR1E2 | 1.178 |
| 39 | `UAAGUCCUCACCGUCGAGU` | C17orf82 | -0.1734 |
| 40 | `UCAUUGCUAAAGACAGUCG` | NXPE3 | -0.1917 |
| 41 | `UCUCCCUCCAUAGAGGACC` | NYAP1 | -0.2376 |
| 42 | `UCCGGUGAGAUGUAAGCCC` | LOC728416 | -0.3549 |
| 43 | `UCCAUGAUAAGCUUUGAUG` | SPRR2B | -0.2507 |
| 44 | `UAAUGGUCCAUGGUGUCGC` | FIBP | -0.0236 |
| 45 | `UGAGUCAAGUUCUUUAACG` | VPS37D | -0.2691 |
| 46 | `UCAAAGUCCAGAAGAUUGG` | FTCD | -1.273 |
| 47 | `UACGUUUCUGAUACCCUCG` | UNC5C | 0.9693 |
| 48 | `UCUUUGAUUCUAAUACCGG` | PAPD7 | 0.7485 |
| 49 | `UUCUUAAUCCAGUCAAUCC` | TAS2R8 | -0.09806 |
| 50 | `UAAAUGGAUAUUCACAUUC` | OTUD1 | -0.5009 |
| 51 | `UUGGACAUAAAAGCUCUAG` | TRIM61 | 1.485 |
| 52 | `UCCAUUGUUAUUCACUACC` | HACL1 | -0.3628 |
| 53 | `UGCAUUCUCAUGACAGGCU` | CDC42EP2 | 0.6027 |
| 54 | `UUAGAUUGAACAUAGGAUC` | DICER1 | 0.1066 |
| 55 | `AAAGGUCAUAAGAGGUUCU` | ARHGAP44 | 0.3002 |
| 56 | `UGCUUGUACACCUUGAUCU` | GAS8 | 1.007 |
| 57 | `AAGCCUAUGGUGGGAAUGG` | ARF1 | -0.4908 |
| 58 | `UACAGUUCUCAAAUCGGGC` | TXLNB | 0.2569 |
| 59 | `UCCCGGUUCAGGAAGUAGU` | CD2BP2 | -0.3554 |
| 60 | `UGAAUGACUCGGGAAGCUG` | FAM86C1 | 0.5183 |
| 61 | `UAAGAUACAUUUAGCUUAC` | GSG2 | 0.1175 |
| 62 | `UACUGCACCAAUUCGUUCC` | IGSF11 | -1.342 |
| 63 | `AAAGUUUCACUGAGCGCGG` | LOC646471 | -1.23 |
| 64 | `UUGGAAAACGGUGUUGAGC` | HPS6 | -0.7467 |
| 65 | `UCUCAUAGCAUUCAAGUCU` | DEFB134 | 0.3216 |
| 66 | `UGAUGGUGAAGUUAUACCA` | ULBP3 | 0.07356 |
| 67 | `UUUGCUAACAGUUGGAGUC` | CFAP54 | -1.51 |
| 68 | `UCAGUUAUGCUAGCGAUUC` | ARMC8 | 0.2062 |
| 69 | `UUCCUCGUAAUAUUCUCUC` | UCMA | -0.5362 |
| 70 | `UCCGUGAACGACUCUGUGA` | RAB40B | -0.1159 |
| 71 | `AAUAGUUGUAGGAAAGAUG` | SERINC4 | -0.2245 |
| 72 | `UUUUUGCUUCGUCUUAAGC` | KIF22 | -0.1503 |

The last 7 entries again:

Sequence,target gene,seed-corrected z-score
UGAUGGUGAAGUUAUACCA,ULBP3,0.07356
UUUGCUAACAGUUGGAGUC,CFAP54,-1.51
UCAGUUAUGCUAGCGAUUC,ARMC8,0.2062
UUCCUCGUAAUAUUCUCUC,UCMA,-0.5362
UCCGUGAACGACUCUGUGA,RAB40B,-0.1159
AAUAGUUGUAGGAAAGAUG,SERINC4,-0.2245
UUUUUGCUUCGUCUUAAGC,KIF22,-0.1503